Measurements reported in publication doi:10.1101/386532 (bioRxiv, 2018).
Results are given in words; binding and its absence hold for the method and conditions named.

Target: T1, CHMP2B(196–213) peptide, fluorescently labelled (human) (UniProt Q9UQN3)
T1 sequence (peptide, Oregon Green 488 maleimide label): ATISDEEIERQLKALGVD
Experiment: fluorescence polarisation

B1: IST1(1–189) (IST1NTD) (domain or fragment, human, UniProt P53990 1-189, looked up)
chain: MLGSGFKAERLRVNLRLVINRLKLLEKKKTELAQKARKEIADYLAAGKDERARIRVEHIIREDYLVEAMEILELYCDLLLARFGLIQSMKELDSGLAESVSTLIWAAPRLQSEVAELKIVADQLCAKYSKEYGKLCRTNQIGTVNDRLMHKLSVEAPPKILVERYLIEIAKNYNVPYEPDSVVMAEAPP
binding: no binding
